In patent publication US7067653B2, “Porphyrin Based neuton capture agents for cancer therapy” (The Regents of the University of California, priority 2000, dated 2006):
Some results were stated once for a whole list of compounds, not compound by compound.

Tested on: 9L cells
Assay: Cellular uptake in 9L cells
Type: cell-based, rat
Conditions: 10 μM, 24 hour exposure

Substance | intracellular levels of boron
meso-tetra[3-(1-methyl-nido-carboranyl)methylphenyl]porphyrin tetrapotassium salt [Compound 10] | > 60 μg of boron per billion cells (or gram of wet tissue)
meso-tetra[4-(1-methyl-nido-carboranyl)methylphenyl]porphyrin tetrapotassium salt [Compound 4] | > 60 μg of boron per billion cells (or gram of wet tissue)
